# Source: PubChem BioAssay AID652243 (Drosophila RNAi Screening Center, 2013)
# Test: 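Knock-downs that decrease or increase androgen receptor reporter signal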 (primary screen)
# System: Drosophila S2R+ cells
# Reagents: long dsRNA against Drosophila genes
# Time to read-out: 72 h (48 h, then 24 h hormone)
# Treatment: synthetic androgen R1881 at 10 nM for 24 h
# Measurement: 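Per-well raw luminescence of the androgen-driven firefly reporter and of the Renilla control, two replicates each, without normalisation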
# Reading the numbers: firefly reporter light: higher = more light from androgen-responsive reporter; Renilla control light: higher = more constitutive control signal (cell number, transfection)
# Rule for the call: 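Hit when the log firefly-to-Renilla ratio dropped or increased by a fixed fold versus the mean of GFP or LacZ controls across duplicate plates; lowering cut given as 1.5 and as 3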
# Meaning of the calls: active = hit: reporter lowered or raised; inactive = no hit
# The deposit covers about 24,000 reagents; below is a random part of those with a known target gene and a result. Of all reagents, 246 (1%) got an active call. 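Plates not normalised; calls are printed but the firefly/Renilla ratio behind them is not deposited; fold cut for lowering reported inconsistently.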 Raw values vary from plate to plate and are shown uncorrected. Reagents against one gene are numbered here. A plus sign joins genes that one reagent is predicted to hit. No sequences are given here. Not stated in the record: the amount of reagent.
predicted target,dsRNA no.,"firefly reporter light, replicate 1","firefly reporter light, replicate 2","Renilla control light, replicate 1","Renilla control light, replicate 2",Outcome
EloC (Elongin C),1,2.23e5,2.34e5,1.94e6,1.83e6,inactive
EloC (Elongin C),2,4.50e5,4.64e5,1.16e6,1.16e6,inactive
CG31848,1,1.90e5,2.42e5,4.99e5,5.24e5,inactive
Prosbeta1 (Proteasome beta1 subunit),1,5.49e5,1.67e5,6.44e5,3.80e5,inactive
CG11247,1,3.68e5,3.37e5,2.16e6,2.57e6,inactive
CG11247,2,7.09e5,7.69e5,1.06e6,1.09e6,inactive
CG11247,3,4.64e5,5.31e5,7.72e5,6.63e5,inactive
MFS10 (Major Facilitator Superfamily Transporter 10),1,74894,1.12e5,7.21e5,5.56e5,inactive
MFS10 (Major Facilitator Superfamily Transporter 10),2,3.71e5,2.96e5,8.38e5,5.82e5,inactive
List (Lithium-inducible SLC6 transporter),1,90916,97303,1.00e6,1.02e6,inactive
CG17140 + CG17139,1,2.32e5,2.11e5,1.36e6,1.59e6,inactive
CG17140 + CG17139,2,1.53e5,1.80e5,1.13e6,1.19e6,inactive
CG9308,1,1.26e5,1.50e5,1.16e6,1.04e6,inactive
CG9308,2,6.69e5,5.66e5,1.91e6,1.33e6,inactive
CG6324,1,2.94e5,3.08e5,2.19e6,2.60e6,inactive
insv (insensitive),1,1.37e5,1.11e5,7.59e5,1.09e6,inactive
insv (insensitive),2,5.25e5,7.34e5,1.12e6,1.70e6,inactive
vari + Pomp,1,,,,,inactive
CG3045,1,7.98e5,8.39e5,1.76e6,1.82e6,inactive
Listericin,1,4.11e5,2.82e5,2.03e6,2.33e6,inactive
Listericin,2,8.48e5,6.65e5,7.97e5,9.23e5,inactive
Uch-L5R (Uch-L5-related),1,2.68e5,2.74e5,2.39e6,2.36e6,inactive
CG40155 (retired record),1,8.58e5,8.19e5,2.06e6,2.07e6,inactive
CecA2 (Cecropin A2),1,2.73e5,2.60e5,2.26e6,3.32e6,inactive
"Gos28 (Golgi SNARE, 28 kDa)",1,2.91e5,2.28e5,3.06e6,3.03e6,inactive
"Gos28 (Golgi SNARE, 28 kDa)",2,4.98e5,8.10e5,9.80e5,1.90e6,inactive
CG7781,1,2.21e5,1.68e5,2.08e6,1.66e6,inactive
smo (smoothened),1,7.83e5,7.66e5,2.44e6,1.37e6,inactive
smo (smoothened),2,2.72e5,4.36e5,9.49e5,1.53e6,inactive
CG34002,1,4.41e5,5.87e5,3.24e5,3.52e5,inactive
Jon99Fii + Jon99Cii + Jon99Ciii + 1 more,1,1.61e5,1.87e5,2.36e6,3.37e6,inactive
CG9993,1,2.42e5,1.61e5,1.44e6,1.25e6,inactive
CG4612,1,6.51e5,4.63e5,1.22e6,1.03e6,inactive
Eig71Ej,1,3.30e5,3.37e5,2.89e6,2.68e6,inactive
Eig71Ej,2,4.61e5,5.96e5,1.64e6,1.87e6,inactive
CG34338,1,1.21e6,9.76e5,2.21e6,2.19e6,inactive
NitFhit (Nitrilase and fragile histidine triad fusion protein),1,83898,86486,1.55e6,1.85e6,inactive
NitFhit (Nitrilase and fragile histidine triad fusion protein),2,7.27e5,4.14e5,2.11e6,1.41e6,inactive
CG14096,1,5.62e5,4.96e5,1.13e6,8.68e5,inactive
Rcd-1 (Required for cell differentiation 1),1,1.89e5,1.64e5,4.12e5,2.82e5,inactive
Obp50e (Odorant-binding protein 50e),1,1.44e5,1.35e5,2.49e6,2.49e6,inactive
CG15209,1,2.58e5,2.70e5,3.86e6,3.96e6,inactive
Gbp1 (Growth-blocking peptide 1),1,78414,93271,1.86e6,1.86e6,inactive
sbb (scribbler),1,2.18e5,2.29e5,5.47e5,5.24e5,inactive
sbb (scribbler),2,83145,1.12e5,1.02e6,1.02e6,inactive
sbb (scribbler),3,4.88e5,5.08e5,1.71e6,2.06e6,inactive
onecut,1,2.74e5,2.11e5,5.00e6,3.24e6,inactive
onecut,2,3.64e5,2.97e5,7.36e5,7.39e5,inactive
Tapdelta (Translocon-associated protein delta),1,8.95e5,1.26e6,1.28e6,1.85e6,inactive
Set2 (SET domain containing 2),1,83483,69553,5.94e5,5.55e5,inactive
CG34134,1,1.17e6,1.00e6,1.97e6,2.59e6,inactive
a (arc),1,1.51e5,2.45e5,1.55e6,1.36e6,inactive
a (arc),2,3.05e5,1.98e5,7.24e5,7.42e5,inactive
l(3)neo43 (lethal (3) neo43),1,1.55e5,1.13e5,2.66e6,2.77e6,inactive
Sps2 (Selenophosphate synthetase 2),1,1.03e5,1.28e5,6.76e5,8.12e5,inactive
ppk13 (pickpocket 13),1,1.39e5,1.50e5,1.49e6,1.62e6,inactive
CG4408,1,61200,47038,5.17e5,4.97e5,inactive
CG4332,1,53722,32715,4.74e5,2.70e5,inactive

8 entries from above, ordered by “firefly reporter light, replicate 2”, low to high.
predicted target,dsRNA no.,"firefly reporter light, replicate 1","firefly reporter light, replicate 2","Renilla control light, replicate 1","Renilla control light, replicate 2",Outcome
Gbp1 (Growth-blocking peptide 1),1,78414,93271,1.86e6,1.86e6,inactive
sbb (scribbler),2,83145,1.12e5,1.02e6,1.02e6,inactive
Obp50e (Odorant-binding protein 50e),1,1.44e5,1.35e5,2.49e6,2.49e6,inactive
Rcd-1 (Required for cell differentiation 1),1,1.89e5,1.64e5,4.12e5,2.82e5,inactive
onecut,1,2.74e5,2.11e5,5.00e6,3.24e6,inactive
sbb (scribbler),1,2.18e5,2.29e5,5.47e5,5.24e5,inactive
CG15209,1,2.58e5,2.70e5,3.86e6,3.96e6,inactive
sbb (scribbler),3,4.88e5,5.08e5,1.71e6,2.06e6,inactive
